PubChem BioAssay AID1159578, Peter MacCallum Cancer Centre | 2015

- Test: 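Genome-wide hunt for genes controlling movement of lymphatic endothelial cells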 (primary screen)
- Cells: human lymphatic endothelial cells
- Knock-down reagent: siRNA pool against human genes, 40 nM
- Duration: 48 h after transfection
- Read-out: 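Cells stained with dye and imaged after a scratch; covered wound area and nuclei counted, duplicates averaged, migration set against mock wells and turned into a robust z-score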
- Reading the numbers: migration robust z-score: higher = faster migration into the scratch; migration relative to mock: higher = more scratch area covered than mock; nuclei per well: higher = more cells in the well
- Active means: 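Pools averaging fewer than 3300 nuclei are never called; remaining pools count as changed when migration robust z lies outside -2 to 2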
- Calls: active = migration changed; inactive = no migration change, or too few cells
Here is one part, drawn at random, of about 18,000 reagents. In the full data, about 1,030 (5.7%) are marked active. 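Inactive calls also include pools with fewer than 3300 nuclei, whose migration was not assessed.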 Raw values vary from plate to plate and are shown uncorrected. A number with no mark means an inactive call.

| gene | migration robust z-score | migration class with cell-count check | migration relative to mock | nuclei per well, duplicate mean |
| --- | --- | --- | --- | --- |
| GINS3 (GINS complex subunit 3) | -0.99 | migration z between -2 and 2; enough cells | 0.63 | 6352 |
| C10orf90 (chromosome 10 open reading frame 90) | 0.28 | migration z between -2 and 2; enough cells | 0.96 | 6018 |
| SYTL2 (synaptotagmin like 2) | 0.88 | migration z between -2 and 2; enough cells | 1.11 | 4542 |
| HOXA2 (homeobox A2) | 1.4 | migration z between -2 and 2; enough cells | 1.08 | 5090 |
| SGSM2 (small G protein signaling modulator 2) | 0.54 | migration z between -2 and 2; enough cells | 1.02 | 6026 |
| BDKRB1 (bradykinin receptor B1) | 0.54 | migration z between -2 and 2; enough cells | 0.91 | 6820 |
| SLC25A16 | 0.68 | migration z between -2 and 2; enough cells | 0.94 | 4932 |
| HMCN1 (hemicentin 1) | 1.03 | migration z between -2 and 2; enough cells | 1.01 | 5152 |
| EIF4EBP1 | -0.02 | migration z between -2 and 2; enough cells | 0.8 | 5256 |
| TMEM95 (transmembrane protein 95) | -0.66 | migration z between -2 and 2; enough cells | 0.72 | 6438 |
| COX6A1 (cytochrome c oxidase subunit 6A1) | -0.58 | migration z between -2 and 2; enough cells | 0.74 | 6736 |
| ELANE (elastase, neutrophil expressed) | 0.83 | migration z between -2 and 2; enough cells | 0.96 | 5360 |
| CLDN6 (claudin 6) | -0.39 | migration z between -2 and 2; enough cells | 0.78 | 5447 |
| MAOB (monoamine oxidase B) | 0.1 | migration z between -2 and 2; enough cells | 0.82 | 5428 |
| ZNF224 (zinc finger protein 224) | -0.03 | migration z between -2 and 2; enough cells | 0.88 | 5820 |
| MCUR1 (mitochondrial calcium uniporter regulator 1) | -0.99 | migration z between -2 and 2; enough cells | 0.63 | 6668 |
| RIN3 (Ras and Rab interactor 3) | -0.68 | migration z between -2 and 2; enough cells | 0.71 | 6209 |
| PTGDR (prostaglandin D2 receptor) | 0.02 | migration z between -2 and 2; enough cells | 0.81 | 6444 |
| FSCN1 (fascin actin-bundling protein 1) | -0.98 | migration z between -2 and 2; enough cells | 0.63 | 5098 |
| SH2D4B (SH2 domain containing 4B) | 0.62 | migration z between -2 and 2; enough cells | 1.04 | 6447 |
| APOBEC3D (apolipoprotein B mRNA editing enzyme catalytic subunit 3D) | -3.58 (active) | migration z below -2; enough cells | 0.12 | 3584 |
| SPRYD7 (SPRY domain containing 7) | -0.45 | migration z between -2 and 2; enough cells | 0.78 | 6107 |
| CNOT11 (CCR4-NOT transcription complex subunit 11) | 0.09 | migration z between -2 and 2; enough cells | 0.9 | 5362 |
| PLCG2 (phospholipase C gamma 2) | -1.29 | migration z between -2 and 2; enough cells | 0.55 | 5124 |
| SLC30A5 | 0.1 | migration z between -2 and 2; enough cells | 0.82 | 5198 |
| TLR1 (toll like receptor 1) | 0.29 | migration z between -2 and 2; enough cells | 0.86 | 5904 |
| RBM46 (RNA binding motif protein 46) | -0.89 | migration z between -2 and 2; enough cells | 0.66 | 5044 |
| REPS2 (RALBP1 associated Eps domain containing 2) | 0.66 | migration z between -2 and 2; enough cells | 1.06 | 6142 |
| HECTD3 (HECT domain E3 ubiquitin protein ligase 3) | 0.26 | migration z between -2 and 2; enough cells | 0.85 | 5814 |
| NIN (ninein) | 1.19 | migration z between -2 and 2; enough cells | 1.19 | 5260 |
| CFAP54 (cilia and flagella associated protein 54) | 0.52 | migration z between -2 and 2; enough cells | 1.01 | 7796 |
| PKN3 (protein kinase N3) | -1.72 | migration z between -2 and 2; enough cells | 0.48 | 4062 |
| ENPP4 (ectonucleotide pyrophosphatase/phosphodiesterase 4) | 0.86 | migration z between -2 and 2; enough cells | 0.97 | 5322 |
| OR5D14 (olfactory receptor family 5 subfamily D member 14) | 1.08 | migration z between -2 and 2; enough cells | 1.16 | 6394 |
| HS3ST2 (heparan sulfate-glucosamine 3-sulfotransferase 2) | 1.71 | migration z between -2 and 2; enough cells | 1.13 | 6734 |
| RTN1 (reticulon 1) | -0.9 | migration z between -2 and 2; enough cells | 0.65 | 4051 |
| BIN3 (bridging integrator 3) | 0.46 | migration z between -2 and 2; enough cells | 1 | 7402 |
| LMAN2L (lectin, mannose binding 2 like) | 0.2 | migration z between -2 and 2; enough cells | 0.94 | 6444 |
| FCER2 (Fc epsilon receptor II) | 0.52 | migration z between -2 and 2; enough cells | 0.9 | 6222 |
| KDM4A (lysine demethylase 4A) | -1.95 | migration z between -2 and 2; enough cells | 0.43 | 5180 |
| SLC16A4 | 1.06 | migration z between -2 and 2; enough cells | 1.01 | 5240 |
| GNG5 (G protein subunit gamma 5) | -0.82 | migration z between -2 and 2; enough cells | 0.68 | 5615 |
| UNC5C (unc-5 netrin receptor C) | 0.36 | migration z between -2 and 2; enough cells | 0.88 | 5470 |
| MUC20 (mucin 20, cell surface associated) | 0.23 | migration z between -2 and 2; enough cells | 0.94 | 6758 |
| PLCH2 (phospholipase C eta 2) | -0.78 | migration z between -2 and 2; enough cells | 0.66 | 5093 |
| KIAA0408 | -0.1 | migration z between -2 and 2; enough cells | 0.86 | 4985 |
| ZDHHC19 (zDHHC palmitoyltransferase 19) | 0.12 | migration z between -2 and 2; enough cells | 0.92 | 6696 |
| ZNF680 (zinc finger protein 680) | -0.56 | migration z between -2 and 2; enough cells | 0.74 | 5564 |
| RSRC2 (arginine and serine rich coiled-coil 2) | -0.23 | migration z between -2 and 2; enough cells | 0.82 | 6322 |
| TMPRSS12 (transmembrane serine protease 12) | 0.13 | migration z between -2 and 2; enough cells | 0.83 | 6057 |
| OR1G1 (olfactory receptor family 1 subfamily G member 1) | 1.15 | migration z between -2 and 2; enough cells | 1.19 | 7751 |
| IL20 (interleukin 20) | -0.6 | migration z between -2 and 2; enough cells | 0.73 | 5884 |
| UBE3A (ubiquitin protein ligase E3A) | -0.1 | migration z between -2 and 2; enough cells | 0.78 | 5166 |
| ARSF (arylsulfatase F) | 0.24 | migration z between -2 and 2; enough cells | 0.85 | 6000 |
| SYNPO2L (synaptopodin 2 like) | 0.99 | migration z between -2 and 2; enough cells | 1.14 | 5812 |
| TINF2 (TERF1 interacting nuclear factor 2) | -0.12 | migration z between -2 and 2; enough cells | 0.86 | 4874 |
| ARFGEF3 (ARFGEF family member 3) | 0.14 | migration z between -2 and 2; enough cells | 0.92 | 5350 |
